Results from PubChem BioAssay AID328 (DTP/NCI, 2004).
The list does not hold the whole screen: it gathers tests that were run many times, whatever their T/C, doses with no T/C, and many T/C values between a quarter and a half above the control. Further doses and runs are listed elsewhere. T/C: endpoint of the treated group in % of that of the vehicle group. Some entries give survivors of the animals treated and no T/C: the source files T/C as zero there, which appears to mark a toxic dose or a test without result, not a measured value. Some survivor counts are full or nearly so, which does not show that the dose was tolerated: the source hardly ever lists a survival T/C far under the control, and the zero likely stands for such cases as well. Counts of survivors are from the toxicity check (mostly the fifth day) where no day follows; animals may have died later. Schedule codes are those of the source, taken here to give the interval after Q, in days (D) or hours (H), and the number of doses after X. Where survival is the endpoint, the PubChem record calls one and a half times the control and up active, and a quarter to a half above the control has no call in these data; cut-offs in other NCI protocols can differ. Signs of the kind (2×) stand for listed records that agree. Some entries hold several experiments; the results are listed from low to high. Some T/C values are followed by the survivors on the day toxicity was checked, most often the fifth; without a count, all were alive then.

Test system: BDF1 mice, P388 leukemia ip, median survival T/C
Test: NCI In Vivo Anticancer Drug Screen. Data for tumor model P388 Leukemia (intraperitoneal) in B6D2F1 (BDF1) mice
Conditions: T/C endpoint: median survival time, higher T/C = longer survival
Method in brief: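 Compound-treated tumour-bearing mice were compared with vehicle-treated controls. Survival was recorded, and the value is the treated-group measurement divided by the control-group measurement (T/C).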

[1] = dose: 400.0 mg/kg/injection, schedule: Q01DX009 (ip), vehicle: saline
[2] = dose: 100.0 mg/kg/injection, schedule: Q01DX009 (ip), vehicle: saline with Tween-80
[3] = dose: 400.0 mg/kg/injection, schedule: Q04DX003 (ip), vehicle: Klucel (hydroxypropylcellulose) (HPC)
[4] = dose: 10.0 mg/kg/injection, schedule: Q01DX009 (ip), vehicle: saline
[5] = dose: 50.0 mg/kg/injection, schedule: Q04DX003 (ip), vehicle: saline with Tween-80
[6] = dose: 50.0 mg/kg/injection, schedule: Q01DX009 (ip), vehicle: saline
[7] = dose: 100.0 mg/kg/injection, schedule: Q01DX009 (ip), vehicle: saline
[8] = dose: 200.0 mg/kg/injection, schedule: Q01DX009 (ip), vehicle: saline
[9] = dose: 400.0 mg/kg/injection, schedule: Q01DX009 (ip), vehicle: saline with Tween-80

For `COC(=O)[C@@]12OC[C@]34[C@H]([C@@H](O)[C@@H]1O)[C@@]1(C)CC(=O)C(O)=C(C)[C@@H]1C[C@H]3OC(=O)[C@H](OC(=O)/C=C(\C)C1(C)CO1)[C@@H]24` (some centres not stated), the T/C (dose: 0.12 mg/kg/injection, schedule: Q01DX009 (ip), vehicle: saline + alcohol) was 125 % of control, the T/C (dose: 0.25 mg/kg/injection, schedule: Q01DX009 (ip), vehicle: saline + alcohol) was 132 % of control and the survivor count (dose: 0.5 mg/kg/injection, schedule: Q01DX009 (ip), vehicle: saline + alcohol) was 2 of 6. The survivor count (dose: 1.0 mg/kg/injection, schedule: Q01DX009 (ip), vehicle: saline + alcohol) was 2 of 6 and the survivor count (dose: 2.0 mg/kg/injection, schedule: Q01DX009 (ip), vehicle: saline + alcohol) was 0 of 6.
`Clc1ccc(NC2=NCCN=C(Nc3ccc(Cl)cc3)SS2)cc1` was tested, and the survivor count (dose: 200.0 mg/kg/injection, schedule: Q01DX009 (ip), vehicle: Klucel (hydroxypropylcellulose) (HPC)) was 6 of 6.
With `COc1cccc2c1C(=O)c1c(O)c3c(c(O)c1C2=O)C[C@@](O)(/C(CO)=N/NC(=O)c1ccccc1)C[C@@H]3OC1CC(N)C(O)C(C)O1` (some centres not stated) the T/C (dose: 1.56 mg/kg/injection, schedule: Q01DX009 (ip), vehicle: water) was 146 % of control and the survivor count (dose: 25.0 mg/kg/injection, schedule: Q01DX009 (ip), vehicle: water) was 6 of 6.
With `O=C(O)CCNCc1ccccc1` the survivor count [1] was 6 of 6.
In the case of `CCOC(=O)c1ccccc1OP(=O)(N(C)C)N(C)C`, the T/C [2] is reported as 142 % of control.
In the case of `[C-]#[N+]C(=C\c1ccc(O)cc1)/C(=C/c1ccc(O)cc1)[N+]#[C-]`, the survivor count (dose: 75.0 mg/kg/injection, schedule: Q01DX009 (ip), vehicle: other) is reported as 0 of 6, the survivor count (dose: 150.0 mg/kg/injection, schedule: Q01DX009 (ip), vehicle: other) is reported as 0 of 6 and the survivor count (dose: 300.0 mg/kg/injection, schedule: Q01DX009 (ip), vehicle: other) is reported as 0 of 6.
`C/C(=C\c1ccc2c(c1)OCO2)[N+](=O)[O-]` was tested, and the T/C (dose: 100.0 mg/kg/injection, schedule: Q04DX003 (ip), vehicle: Klucel (hydroxypropylcellulose) (HPC)) was 136 % of control [5 of 6 alive], the T/C (dose: 200.0 mg/kg/injection, schedule: Q04DX003 (ip), vehicle: Klucel (hydroxypropylcellulose) (HPC)) was 140 % of control and the survivor count (dose: 300.0 mg/kg/injection, schedule: Q04DX003 (ip), vehicle: Klucel (hydroxypropylcellulose) (HPC)) was 5 of 6. The survivor count [3] was 3 of 6.
With `CC(=O)C1COC(O)C1C` (configuration not stated) the T/C (dose: 5.0 mg/kg/injection, schedule: Q01DX009 (ip), vehicle: saline) was 142 % of control (2×), the T/C (dose: 5.0 mg/kg/injection, schedule: Q01DX010 (ip), vehicle: saline) was 129 % of control and the T/C [4] was 130 % of control. The survivor count [4] was 5 of 6.
With `Cc1ccc2c(c1)CC(C)([CH2][Hg][Cl])O2` (configuration not stated) the survivor count (dose: 24.0 mg/kg/injection, schedule: Q04DX003 (ip), vehicle: Klucel (hydroxypropylcellulose) (HPC)) was 0 of 6.
In the case of `C=C(C)C12CC(COC(=O)c3ccccc3)C34OC5(OC1C3C1OC1(CO)C(O)C1(O)C(OC(=O)c3ccccc3)C(C)C(C(C)CCCCCCC5O)C14)O2` (configuration not stated), the T/C (dose: 0.37 mg/kg/injection, schedule: Q01DX009 (ip), vehicle: saline) is reported as 136 % of control, the T/C (dose: 1.0 mg/kg/injection, schedule: Q01DX009 (ip), vehicle: saline) is reported as 136 % of control [5 of 6 alive] and the T/C (dose: 1.6 micrograms/kg/injection, schedule: Q01DX009 (ip), vehicle: gum acacia) is reported as 135 % of control. The T/C (dose: 3.1 micrograms/kg/injection, schedule: Q01DX009 (ip), vehicle: gum acacia) was 135 % of control, the T/C (dose: 4.0 micrograms/kg/injection, schedule: Q01DX009 (ip), vehicle: saline + alcohol) was 131 % of control and the survivor count (dose: 6.3 micrograms/kg/injection, schedule: Q01DX009 (ip), vehicle: saline with Tween-80) was 5 of 6. For the same compound, the T/C (dose: 8.0 micrograms/kg/injection, schedule: Q01DX009 (ip), vehicle: saline + alcohol) was 139 % of control, the survivor count (dose: 12.5 micrograms/kg/injection, schedule: Q01DX009 (ip), vehicle: saline with Tween-80) was 1 of 6 and the T/C (dose: 16.0 micrograms/kg/injection, schedule: Q01DX009 (ip), vehicle: saline + alcohol) was 137 % of control [5 of 6 alive]. The survivor count (dose: 25.0 micrograms/kg/injection, schedule: Q01DX009 (ip), vehicle: saline + alcohol) was 5 of 6, the survivor count (dose: 25.0 micrograms/kg/injection, schedule: Q01DX009 (ip), vehicle: saline with Tween-80) was 1 of 6 and the survivor count (dose: 32.0 micrograms/kg/injection, schedule: Q01DX009 (ip), vehicle: saline + alcohol) was 6 of 6. The survivor count (dose: 50.0 micrograms/kg/injection, schedule: Q01DX009 (ip), vehicle: saline + alcohol) was 5 of 6, the survivor count (dose: 50.0 micrograms/kg/injection, schedule: Q01DX009 (ip), vehicle: saline with Tween-80) was 0 of 6 and the survivor count (dose: 64.0 micrograms/kg/injection, schedule: Q01DX009 (ip), vehicle: saline + alcohol) was 0 of 6. The T/C (dose: 100.0 micrograms/kg/injection, schedule: Q01DX009 (ip), vehicle: gum acacia) was 131 % of control, the survivor count (dose: 100.0 micrograms/kg/injection, schedule: Q01DX009 (ip), vehicle: saline + alcohol) was 0 of 6 and the survivor count (dose: 100.0 micrograms/kg/injection, schedule: Q01DX009 (ip), vehicle: saline with Tween-80) was 0 of 6. For the same compound, the survivor count (dose: 128.0 micrograms/kg/injection, schedule: Q01DX009 (ip), vehicle: saline + alcohol) was 0 of 6.
With `Cn1c(=O)c2nc(-c3ccc(Cl)cc3)c(-c3ccc(Cl)cc3)nc2n(C)c1=O` the survivor count (dose: 400.0 mg/kg/injection, schedule: Q01DX001 (ip), vehicle: saline with Tween-80) was 5 of 6.
For `CC(=O)N(C)C`, the survivor count (dose: 5400.0 mg/kg/injection, schedule: Q01DX010 (ip), vehicle: saline) was 0 of 6.
`CCN(CC)Cc1cc(Nc2c3ccc([N+](=O)[O-])cc3nc3ccc(OC)cc23)ccc1O` was tested, and the survivor count (dose: 12.5 mg/kg/injection, schedule: Q01DX009 (ip), vehicle: saline) was 6 of 6 and the T/C (dose: 50.0 mg/kg/injection, schedule: Q04DX003 (ip), vehicle: saline) was 128 % of control.
`Cc1[o+]c(C)c2c(c1C)-c1ccccc1C2=O` was tested, and the T/C [5] was 126 % of control, the survivor count [5] was 6 of 6 and the survivor count (dose: 100.0 mg/kg/injection, schedule: Q04DX003 (ip), vehicle: saline with Tween-80) was 6 of 6. For the same compound, the survivor count (dose: 200.0 mg/kg/injection, schedule: Q04DX003 (ip), vehicle: saline with Tween-80) was 6 of 6 and the survivor count (dose: 400.0 mg/kg/injection, schedule: Q04DX003 (ip), vehicle: saline with Tween-80) was 2 of 6.
`Nc1ccc2ccccc2c1N=Nc1ccccc1` was tested, and the T/C (dose: 264.0 mg/kg/injection, schedule: Q04DX003 (ip), vehicle: Klucel (hydroxypropylcellulose) (HPC)) was 133 % of control and the T/C [3] was 128 and 133 % of control.
In the case of `O=[N+]([O-])OCc1c(Cl)nc(Cl)c(Cl)c1Cl`, the survivor count [2] is reported as 4 of 6.
In the case of `NCCNCC[OH2+].NCCNCC[OH2+].O=S(=O)([O-])[O-].[Cu+2]`, the survivor count [6] is reported as 0 of 6, the survivor count [7] is reported as 0 of 6 and the survivor count [8] is reported as 0 of 6.
`CC12CCC3(CC1CCC(OC(=O)c1ccccc1)C2)OCCO3` (configuration not stated) was tested, and the T/C (dose: 100.0 mg/kg/injection, schedule: Q01DX009 (ip), vehicle: other) was 136 % of control and the T/C (dose: 100.0 mg/kg/injection, schedule: Q04DX003 (ip), vehicle: other) was 145 % of control.
`CCCCCCCCN(N)C12CC3CC(CC(C3)C1)C2` was tested, and the survivor count [6] was 5 of 6 and the survivor count [7] was 6 of 6.
In the case of `O=C1Nc2ccc(Br)cc2C1=Nc1ccc(Cl)cc1`, the survivor count [9] is reported as 3 of 6.
In the case of `CC(C)(N)COS(=O)(=O)O`, the survivor count [8] is reported as 6 of 6.
In the case of `NC(=O)c1nc(-c2ccccc2)c(-c2ccccc2)[nH]c1=O`, the survivor count [9] is reported as 3 of 6.
In the case of `CCOC(=O)CCN1CCCCCC1`, the survivor count [7] is reported as 5 of 6 and the survivor count [1] is reported as 6 of 6.
With `CC(Br)C(=O)c1ccc(OCc2ccccc2)cc1` (configuration not stated) the T/C (dose: 200.0 mg/kg/injection, schedule: Q01DX009 (ip), vehicle: saline with Tween-80) was 128 % of control [5 of 6 alive].
For `N#CC(=C=[N-])[n+]1ccccc1`, the survivor count (dose: 40.0 mg/kg/injection, schedule: Q01DX009 (ip), vehicle: Klucel (hydroxypropylcellulose) (HPC)) was 2 of 6.
